# PMC8636486
# Sequences of proteins named here, by UniProt entry; tags and fusion partners are left off. A change or cut given only in a name is not applied to a line headed by its entry.
# UniProt P08985: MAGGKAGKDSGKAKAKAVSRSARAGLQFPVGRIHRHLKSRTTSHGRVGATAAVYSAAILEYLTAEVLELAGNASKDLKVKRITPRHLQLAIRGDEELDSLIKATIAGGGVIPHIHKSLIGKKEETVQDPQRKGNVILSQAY
# UniProt Q960X4: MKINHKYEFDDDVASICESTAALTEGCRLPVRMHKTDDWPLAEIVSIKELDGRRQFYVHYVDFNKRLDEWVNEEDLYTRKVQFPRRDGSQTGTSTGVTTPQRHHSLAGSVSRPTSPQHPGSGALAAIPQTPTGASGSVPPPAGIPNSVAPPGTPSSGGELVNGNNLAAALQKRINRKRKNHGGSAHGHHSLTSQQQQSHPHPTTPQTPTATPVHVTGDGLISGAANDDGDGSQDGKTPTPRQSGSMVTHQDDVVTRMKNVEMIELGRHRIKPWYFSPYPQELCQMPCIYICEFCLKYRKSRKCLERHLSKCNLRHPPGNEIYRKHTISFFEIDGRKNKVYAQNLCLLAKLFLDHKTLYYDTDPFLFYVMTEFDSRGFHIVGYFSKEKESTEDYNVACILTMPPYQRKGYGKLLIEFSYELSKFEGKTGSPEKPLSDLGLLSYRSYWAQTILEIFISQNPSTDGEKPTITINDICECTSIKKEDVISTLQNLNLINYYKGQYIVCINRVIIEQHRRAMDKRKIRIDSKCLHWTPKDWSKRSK
# UniProt A1ZAS6: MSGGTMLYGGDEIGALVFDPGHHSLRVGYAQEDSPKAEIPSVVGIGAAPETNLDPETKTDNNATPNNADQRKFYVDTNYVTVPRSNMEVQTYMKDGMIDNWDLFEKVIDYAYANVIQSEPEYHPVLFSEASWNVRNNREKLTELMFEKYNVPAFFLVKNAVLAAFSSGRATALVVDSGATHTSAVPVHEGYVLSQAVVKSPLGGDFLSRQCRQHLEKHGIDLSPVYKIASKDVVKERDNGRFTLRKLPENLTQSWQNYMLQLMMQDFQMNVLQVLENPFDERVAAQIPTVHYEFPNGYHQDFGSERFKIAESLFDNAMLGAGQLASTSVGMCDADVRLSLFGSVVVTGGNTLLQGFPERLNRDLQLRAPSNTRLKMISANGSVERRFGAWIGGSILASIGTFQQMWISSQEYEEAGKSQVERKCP
# UniProt Q9VRN3: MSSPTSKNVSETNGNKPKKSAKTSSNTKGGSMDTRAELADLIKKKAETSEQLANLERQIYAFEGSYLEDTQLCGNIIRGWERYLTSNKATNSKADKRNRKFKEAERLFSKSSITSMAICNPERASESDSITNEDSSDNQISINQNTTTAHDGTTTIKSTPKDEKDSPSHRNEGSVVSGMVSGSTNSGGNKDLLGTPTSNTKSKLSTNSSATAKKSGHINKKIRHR
# UniProt Q9NDJ2: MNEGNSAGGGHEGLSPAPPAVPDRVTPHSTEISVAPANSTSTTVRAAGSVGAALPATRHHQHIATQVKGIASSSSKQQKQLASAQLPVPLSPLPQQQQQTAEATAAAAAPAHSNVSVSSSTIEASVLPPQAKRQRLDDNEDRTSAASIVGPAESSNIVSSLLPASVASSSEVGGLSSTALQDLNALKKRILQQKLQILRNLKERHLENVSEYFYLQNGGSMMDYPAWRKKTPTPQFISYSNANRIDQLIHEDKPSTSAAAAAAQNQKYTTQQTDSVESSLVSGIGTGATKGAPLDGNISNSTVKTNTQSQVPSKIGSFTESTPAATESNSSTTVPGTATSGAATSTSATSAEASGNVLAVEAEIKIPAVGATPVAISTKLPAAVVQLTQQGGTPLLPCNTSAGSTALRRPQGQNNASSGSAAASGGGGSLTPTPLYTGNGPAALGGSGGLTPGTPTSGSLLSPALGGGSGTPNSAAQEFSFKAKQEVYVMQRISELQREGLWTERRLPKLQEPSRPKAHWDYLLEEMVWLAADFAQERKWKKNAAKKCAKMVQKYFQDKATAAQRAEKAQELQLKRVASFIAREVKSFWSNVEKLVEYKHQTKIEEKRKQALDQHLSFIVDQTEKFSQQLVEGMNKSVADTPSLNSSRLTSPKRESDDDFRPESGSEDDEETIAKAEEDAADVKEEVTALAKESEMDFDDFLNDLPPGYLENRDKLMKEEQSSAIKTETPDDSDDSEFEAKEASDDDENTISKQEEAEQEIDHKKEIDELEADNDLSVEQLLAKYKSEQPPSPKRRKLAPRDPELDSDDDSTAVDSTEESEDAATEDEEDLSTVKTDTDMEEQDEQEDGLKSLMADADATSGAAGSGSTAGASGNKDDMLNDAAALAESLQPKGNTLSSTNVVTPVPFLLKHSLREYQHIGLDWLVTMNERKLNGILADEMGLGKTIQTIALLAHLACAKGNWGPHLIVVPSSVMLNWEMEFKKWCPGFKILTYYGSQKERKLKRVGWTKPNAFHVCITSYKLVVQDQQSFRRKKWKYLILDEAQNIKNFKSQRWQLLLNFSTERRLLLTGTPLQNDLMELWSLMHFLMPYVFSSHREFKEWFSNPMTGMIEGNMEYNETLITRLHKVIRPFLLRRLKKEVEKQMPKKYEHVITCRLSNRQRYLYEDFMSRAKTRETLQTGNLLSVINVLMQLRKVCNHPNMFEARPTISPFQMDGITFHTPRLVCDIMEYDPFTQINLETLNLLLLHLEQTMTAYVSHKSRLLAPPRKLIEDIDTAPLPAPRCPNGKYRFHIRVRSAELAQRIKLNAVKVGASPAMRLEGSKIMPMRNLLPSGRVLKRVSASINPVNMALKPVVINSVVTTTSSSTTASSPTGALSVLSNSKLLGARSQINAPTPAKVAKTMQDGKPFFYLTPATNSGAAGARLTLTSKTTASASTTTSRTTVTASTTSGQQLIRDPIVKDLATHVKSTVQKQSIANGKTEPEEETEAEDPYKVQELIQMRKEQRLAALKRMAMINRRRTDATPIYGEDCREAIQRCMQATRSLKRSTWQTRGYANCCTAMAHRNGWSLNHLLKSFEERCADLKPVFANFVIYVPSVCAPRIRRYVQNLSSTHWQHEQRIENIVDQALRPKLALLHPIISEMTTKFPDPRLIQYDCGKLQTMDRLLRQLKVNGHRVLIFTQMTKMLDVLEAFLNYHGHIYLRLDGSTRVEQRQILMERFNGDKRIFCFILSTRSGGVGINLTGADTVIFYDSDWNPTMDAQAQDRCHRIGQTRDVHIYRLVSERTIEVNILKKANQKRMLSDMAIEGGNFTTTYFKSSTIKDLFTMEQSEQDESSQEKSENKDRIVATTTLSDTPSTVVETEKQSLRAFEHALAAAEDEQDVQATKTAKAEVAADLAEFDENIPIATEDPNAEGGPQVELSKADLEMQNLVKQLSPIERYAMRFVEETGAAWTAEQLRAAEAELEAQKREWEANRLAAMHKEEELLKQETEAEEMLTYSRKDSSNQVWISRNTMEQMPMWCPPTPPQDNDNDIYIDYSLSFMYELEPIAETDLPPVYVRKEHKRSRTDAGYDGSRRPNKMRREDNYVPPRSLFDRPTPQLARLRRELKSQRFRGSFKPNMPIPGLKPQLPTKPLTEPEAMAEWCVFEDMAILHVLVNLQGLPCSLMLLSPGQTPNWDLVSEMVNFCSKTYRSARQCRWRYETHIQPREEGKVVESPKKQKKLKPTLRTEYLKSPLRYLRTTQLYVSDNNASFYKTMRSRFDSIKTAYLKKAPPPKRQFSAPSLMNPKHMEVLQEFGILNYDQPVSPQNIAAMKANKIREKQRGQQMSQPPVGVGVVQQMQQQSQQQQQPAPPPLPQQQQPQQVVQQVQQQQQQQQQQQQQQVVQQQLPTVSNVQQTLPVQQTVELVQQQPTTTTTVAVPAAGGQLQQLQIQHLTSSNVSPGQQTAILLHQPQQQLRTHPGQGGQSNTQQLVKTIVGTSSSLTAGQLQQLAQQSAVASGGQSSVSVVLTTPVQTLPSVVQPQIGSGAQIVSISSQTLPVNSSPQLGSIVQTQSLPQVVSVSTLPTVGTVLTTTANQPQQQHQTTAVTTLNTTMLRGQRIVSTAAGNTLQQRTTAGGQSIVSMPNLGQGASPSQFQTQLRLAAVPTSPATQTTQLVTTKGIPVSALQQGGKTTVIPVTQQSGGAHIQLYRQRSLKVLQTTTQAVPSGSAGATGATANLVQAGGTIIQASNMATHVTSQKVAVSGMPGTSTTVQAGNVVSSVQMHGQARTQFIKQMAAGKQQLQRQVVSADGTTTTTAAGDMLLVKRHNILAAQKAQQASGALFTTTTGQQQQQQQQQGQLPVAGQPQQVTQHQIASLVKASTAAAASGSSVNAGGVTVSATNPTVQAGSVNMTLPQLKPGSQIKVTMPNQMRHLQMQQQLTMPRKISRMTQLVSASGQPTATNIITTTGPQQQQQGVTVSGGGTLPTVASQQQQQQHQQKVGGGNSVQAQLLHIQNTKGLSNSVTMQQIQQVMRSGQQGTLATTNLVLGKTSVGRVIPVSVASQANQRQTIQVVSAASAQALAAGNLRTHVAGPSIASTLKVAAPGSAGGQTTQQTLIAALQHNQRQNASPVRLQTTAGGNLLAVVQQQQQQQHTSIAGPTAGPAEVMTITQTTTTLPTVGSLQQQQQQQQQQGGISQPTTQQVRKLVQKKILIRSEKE
# UniProt Q9V3K3: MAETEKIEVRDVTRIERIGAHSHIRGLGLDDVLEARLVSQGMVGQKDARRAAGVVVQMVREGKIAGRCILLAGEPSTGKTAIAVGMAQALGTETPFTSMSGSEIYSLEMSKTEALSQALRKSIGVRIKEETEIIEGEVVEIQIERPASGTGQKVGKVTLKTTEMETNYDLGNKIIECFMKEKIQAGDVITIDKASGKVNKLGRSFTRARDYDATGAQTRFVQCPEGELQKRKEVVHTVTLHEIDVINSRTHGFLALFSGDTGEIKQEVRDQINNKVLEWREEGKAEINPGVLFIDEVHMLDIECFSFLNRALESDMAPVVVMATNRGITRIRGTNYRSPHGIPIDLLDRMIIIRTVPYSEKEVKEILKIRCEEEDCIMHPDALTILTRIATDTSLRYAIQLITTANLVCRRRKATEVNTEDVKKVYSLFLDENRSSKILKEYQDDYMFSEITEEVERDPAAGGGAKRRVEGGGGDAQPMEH
# UniProt Q9VM63: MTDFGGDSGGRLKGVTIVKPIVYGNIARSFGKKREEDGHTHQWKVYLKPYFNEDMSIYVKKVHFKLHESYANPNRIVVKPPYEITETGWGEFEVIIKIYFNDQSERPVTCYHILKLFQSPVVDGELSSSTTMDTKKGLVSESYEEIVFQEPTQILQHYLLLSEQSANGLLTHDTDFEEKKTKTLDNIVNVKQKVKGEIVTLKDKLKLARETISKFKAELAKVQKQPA
# Target: H2A.Z-FlagHA (histone variant His2Av) (Drosophila) (UniProt P08985)
# Experiment: affinity purification with mass spectrometry; anti-FLAG M2 affinity gel with 1 mg nuclear soluble extract of Drosophila ovaries expressing H2A.Z-FlagHA in the germline; IP-buffer (20 mM Tris-HCl pH 7.5, 10% glycerol, 5 mM MgCl2, 150 mM KCl, 0.05% NP40, 0.1% Tween20, 1 mM DTT), 4 h at 4 °C; eluted with Flag peptide; enrichment over control, 3 biological replicates
row,Molecule,binding
1,Tip60 (from UniProt Q960X4 1-541),binds
2,Bap55 (from UniProt A1ZAS6),binds
3,Nipped-A (from UniProt Q8I8U7 1-3790),binds
4,Eaf6 (from UniProt Q9VRN3 1-225),binds
5,Domino isoform A (from UniProt Q9NDJ2 1-3198),binds
6,rept (from UniProt Q9V3K3 1-481),binds
7,Gas41 (from UniProt Q9VM63),binds
8,"Ing3 (protein, UniProt Q9VWS0 1-686) MLYLEDYLEMIEHLPQELRDRFTEMRELDLAVQNNMDSLDKKAHMFFKQCKRDELQHESMDTEFHSLRGEYFKVMEDADEKVAIATQIHELVERYLRRLDSELFKFKCELEADNNGITEILERRSLELDGNSTAATALLLSMNQKENRYYGASSANTMVNSSTGHATGAATGSSGIALVSGAAGTGGALSSISTAQLGSSQRHRKLEKRRETICTVPVQEKRANLNHSLPVVGSGSTTAAAASSSSATTAAAAASLASATTAQTHVSNHIGSIAATHLTLPVAMGVAGGSSSLASSSLATGTGSLVRQLPTNLTHTVLSTSGGATAAAAAGGNSTSVVAAGTAHGHAHVSGHSAAGATVTYNLQQLGGGAAASSAIAAAASQAIVATQQMQQGRRTASLKASYEAIHGTAGTTTDFWTQAGQGGLQQSTAGSVTVAAGTALATGAAGGSSTGSHHSHHSQSHHGGHGHGHGHGHGHGHGHGHHSSSGHGGGHSSHHQEKKQKKKLTTALTLPTVQPTAGSSSGNSIGSSSSISLESVNKLTTSAALAAASATTTYMSVGGQALLAMTPGGGGGGNLAESSAEGVPAGMIAMNLPTTTVTPGSSLTIGENGLVVEQTNEGEWSYDPNEPRYCTCNQVSYGDMVACDNDACPYEWFHYPCVGITQPPKGKWYCPKCTASMRRRGNRKN",binds
9,"Arp6 (protein, UniProt P45890 1-398) MANAVVVLDNGAHTAKVGLANQDEPHVVPNCIMKAKSERRRAFVGNQIDECRDTSALYYILAFQRGYLLNWHTQKTVWDYIFSKDGIGCSLENRNIVITEPQMNFQSIQEATLEILFEEYKVDGVYKTTAADLAAFNYVADSEERTTMESLNCIIIDVGYSFTHVVPFVLGRRVLQGIRRIDMGGKALTNQLKELISYRHLNVMDESHVVNQIKEDVCFVAEDFKQAMQVHYSEEKRREVTVDYVLPDFTTVKRGYVRVPGKPREDEEQQQMVSLCNERFTVPELLFNPSDIGVQQVGIPEAVADCLKACPWEAHRELLLNILIVGGSAQFPGFLPRLKRDLRALVPDDLEVSLICPEDPVRYAWYGGKEVATSPNFEEFVYTQDDYEEYGFQGINQR",binds
10,"YL-1 (protein, UniProt Q9VKM6 1-351) MAASRSRRNNAGNKIAHLLNEEEEDDFYKTSYGGFQEDEEDKEYEQKDEEEDVVDSDFSIDENDEPVSDQEEAPEKKRKRGVVNTKAYKETKPAVKKETKATPALHKKRPGGGVTKRRPRPRFTVLDSGRKSIRTSTAIKTQATKIRLKELDDARKRKKKKVRVEDYMPTQEELLEEAKITEEENTKSLEKFQKMELEKKKSRPTKRTFSGPTIRYHSLTMPAMRKPTRGANPAVDSKDLAGKCERTFVTIENDFNDKVFQSLFRHKAPPKASNGICPITRLPARYFDPITQQPYYSIQAFKILREAYYMQLEQQGGGSEQPELAKWLEWRKLVKENRLKASAAASKNGDN",binds
11,"DMAP-1 (protein, UniProt Q7K3D8 1-433) MSADVRDILDMERANTPEVTRDSFLATKKRNFERTKTASRRPEGMHREVFALLYTDKKDAPPLLPTDTALGIGAGYKETKARLGMKKVRKWEWAPFSNPARNDSAVFHHWKRVTDNSTDYPFAKFNKQLEVPSYTMTEYNAHLRNNINNWSKVQTDHLFDLARRFDLRFIVMADRWNRQQHGTKTVEELKERYYEVVALLAKAKNQTSEKKVFVYDVEHERRRKEQLEKLFKRTTQQVEEENMLINEMKKIEARKKERERKTQDLQKLISQADQQNEHASNTPSTRKYEKKLHKKKVHQQPRPSRVDSVVNAIEIGSSGIKFADLRGSGVSLRSQRMKLPANIGQRKVKALEQAIQEFKVDPAPPPTEDICTSFNELRSDMVLLCELRTALSTCVYEMESLKHQYEAACPGKTLNIPPSLVPIKTEALDNSTN",binds
12,"Brd8 (protein, UniProt Q9VAM5 1-872) MSAGVQERLQLSRMPLDTWSKREQLILASAVSCSGDQNWITVSRTLKTICGNGSSNRPADWFSQKNCAMQYGNLLESVEATKRKKRSSESSAGVSSPATVETPTELLLRRLTEERQAEIKAQMRQDQETYRRIQREIESLQSDAVTEQELQDMWLEIEKEQEARRIEEMKLENRMREREQRKKDLASNWRNSSLAVKRSNQAADTTSVDMDVEDINTSGNGKQQTGPSPLLTSLLKSPTGNAPATPTPGGAAPAAGGTGSVARATAPTITSLLTSGPSSAVANQPVITMKSPTDAAFMSRPITGPPASEASTTPTLERSPSQAAPTLSMLLEKNMAAAKANESGSLVKPEGSGNQEQGVDEATSSAAGTADSDEADPNEAQLLEVFKNIDQIIDDIDIDMASVIDDEILKNVDDVVASPSNDKAEVIDFEDKLDALKREQSKSSPASDKPKSVELVIGSSDDSNDNIPLAAVASQESKDRGQSGGESTRGTEDAESEPLTSEVAVEEIGETITIISTSSEDTAGSPPTKMEEDGATDSLPKKEDAAEDKSEQESSSQGQNKAGGSTDEPELIDHQATREAQSKSGKDTAGKPVTMQEKTTTQSAPVPVDLHDTDEESSSLTDSSKHDDHPRSAKAKPPALKLALDDSKSELELSGTPQPPSAPARTPLLRKLPHRDRSESPMVDDDATTASDHSTARSTRRRCSSTPVIDSIPNSPASSEHTDDRRETRAASKKLFLSIYAMLLDSKHAAPFKRPFHDEHAQRHADLCLRPMDFPTIKRNIDSGFIRSLSELHRDVLLMAHNVLVAYKPHTAQHKTARLFVQDCQAIKEFSQLPDVQAGITATPVSNTGSLRADKSSGSKARSGSRKSQRHH",binds
13,"MRG15 (protein, UniProt Q9Y0I1 1-424) MGEVKPAKVENYSTGTDANTLFVDGERVLCFHGPLIYEAKVLKTKPDATPVEYYIHYAGWSKNWDEWVPENRVLKYNDDNVKRRQELARQCGERSKKDNKKGSAKAKKMEQMRNESRASTPSKDSNTSQSTASSTPTTSAGPGSKSEAGSTGTTTTNSTANSTTSRAHRKSTQSTPSTARPGTPSDKKEDPAAAETTEEEGPVAPKKKRMSEQRPSLTGSDVAEKPLPPTTTPSTPTTEPAPCVESEEAYAAKVEVKIKIPDELKHYLTDDWYAVVREHKLLELPAKVTVQQISEQYLAHKKSVKSTSASKEVAINDVLDGIVEYFNVMLGSQLLYKFERTQYADVMQKHPDTPLSELYGSFHLLRLFVRLGSMLSYSALDQQSMQNLLTHVQDFLKFLVKNSSIFFSMSNFINVDPEYVRNAQ",binds

# No constants are given. Whether binding was seen depends on the method and setting. In cells and extracts the contact can be indirect. These calls come from enrichment with a bait or labelling near it, and not all partners need be listed.
